Test results published in patent publication US9932522B2, “Electrochromic compound, electrochromic composition, display element, and dimming element” (Ricoh Company, Ltd., priority 2014, dated 2018).

Assay: Coloring-discharging comparison test of display electrode with electrochromic display layer
Settings: compound adsorbed on titanium oxide particle film; for Discharged state (color): before applying the voltage; for Colored state (color): voltage of −1.5 V applied

## O=P(O)(O)CCCCCCCC[n+]1ccc(-c2ccc(-c3ccccc3)cc2)cc1.[Br-] [Comparative Compound 3, reference compound]
  Discharged state (color): colorless
  Colored state (color): colorless

## O=P(O)(O)CCCCCCCC[n+]1ccc(-c2ccc(-c3cccs3)cc2)cc1.[Br-] [Compound 1b]
  Discharged state (color): pale yellow
  Colored state (color): yellow

## O=P(O)(O)CCCCCCCC[n+]1ccc(-c2ccc(-c3cncs3)cc2)cc1.[Br-] [Compound 2b]
  Discharged state (color): colorless
  Colored state (color): yellow

## O=P(O)(O)CCCCCCCC[n+]1ccc(-c2ccc(-c3nccs3)cc2)cc1.[Br-] [Compound 3b]
  Discharged state (color): colorless
  Colored state (color): yellow

## COc1nc(OC)nc(-c2ccc(-c3cc[n+](CCCCCCCCP(=O)(O)O)cc3)cc2)n1.[Br-] [Compound 4b]
  Discharged state (color): colorless
  Colored state (color): yellow

## O=P(O)(O)CCCCCCCC[n+]1ccc(-c2ccc(-c3nc(-c4ccccc4)nc(-c4ccccc4)n3)cc2)cc1.[Br-] [Compound 5b]
  Discharged state (color): colorless
  Colored state (color): green

## O=P(O)(O)CCCCCCCC[n+]1ccc(-c2ccc(-c3ncccn3)cc2)cc1.[Br-] [Compound 6b]
  Discharged state (color): colorless
  Colored state (color): yellow

## O=P(O)(O)CCCCCCCC[n+]1cccc(-c2ccc(-c3cccs3)cc2)c1 [Compound 12b]
  Discharged state (color): colorless
  Colored state (color): yellow
